For assay [1], the target named is T1, GST-PST-rich+CTH PTP HSCF (GST fusion of PTP HSCF amino acids 304-453) (UniProt Q61152).
T1 sequence (looked up): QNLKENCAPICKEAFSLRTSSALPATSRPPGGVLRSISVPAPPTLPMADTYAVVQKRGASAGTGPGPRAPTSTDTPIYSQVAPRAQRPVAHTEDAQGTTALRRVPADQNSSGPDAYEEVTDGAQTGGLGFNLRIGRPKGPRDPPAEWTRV
Nature of the assay: PTP HSCF GST fusion pulldown of in vitro translated PST PIP mutant.

The target in assay [2] is T1, GST-PST-rich+CTH PTP HSCF (GST fusion of PTP HSCF amino acids 304-453). Nature of the assay: GST-PTP HSCF pulldown of in vitro translated PST PIP deletion mutant.
Assay [3] has the same target. Briefly: GST-PTP HSCF pulldown of in vitro translated PST PIP mutant.
The target is the same in assay [4]. Nature of the assay: GST-PTP HSCF pulldown of in vitro translated PST PIP.
Assay [5] addresses full-length PSTPIP tagged with the FLAG epitope at the C-terminus (murine) (UniProt P97814). Nature of the assay: co-immunoprecipitation from co-transfected COS cells.

Residue numbers refer to the chain shown, from its start. These are yes or no findings as the source states them, for the method shown. Binding seen in cells or lysates may run through a third protein. Some entries that bind do so weakly or less than the wild type. Sequences can lack the tags named with a protein.

Consider “PST PIP cluster mutant D38VE to alanine, C-terminal FLAG (from UniProt P97814 1-415)”, for which, in assay [1], the binding result is “binds”.

In the case of “PST PIP cluster mutant D145QK to alanine, C-terminal FLAG (from UniProt P97814 1-415)”, the binding entry in assay [1] is “binds”.

In the case of “PST PIP cluster mutant E50ER to alanine, C-terminal FLAG (from UniProt P97814 1-415)”, in assay [1], the binding entry is listed as “binds”.

For “PST PIP cluster mutant E110RQ to alanine, C-terminal FLAG (from UniProt P97814 1-415)”, the binding result in assay [1] is “binds”.

For the molecule “PST PIP cluster mutant E159RV to alanine, C-terminal FLAG (from UniProt P97814 1-415)”, the binding entry in assay [1] is “binds”.

Take “PST PIP cluster mutant I122MD to alanine, C-terminal FLAG (from UniProt P97814 1-415)”: the binding entry in assay [1] is on record as “binds”.

In the case of “PST PIP cluster mutant L133YK to alanine, C-terminal FLAG (from UniProt P97814 1-415)”, the binding entry in assay [1] is reported as “binds”.

For the molecule “PST PIP cluster mutant N86VG to alanine, C-terminal FLAG (from UniProt P97814 1-415)”, the binding result in assay [1] was “binds”.

Turning to “PST PIP cluster mutant Q169VE to alanine, C-terminal FLAG (from UniProt P97814 1-415)”, in assay [1], the binding result is “binds”.

As for “PST PIP cluster mutant R62K to alanine, C-terminal FLAG (from UniProt P97814 1-415)”, the binding result in assay [1] is recorded as “binds”.

Consider “PST PIP cluster mutant R99EE to alanine, C-terminal FLAG (from UniProt P97814 1-415)”, for which the binding result in assay [1] was “binds”.

As to “PST PIP missing 25 amino acids from the N-terminus (delta 25), C-terminal FLAG (from UniProt P97814 26-415)”, the binding entry in assay [2] is recorded as “binds”.

Take “PST PIP with leucine 224 mutated to alanine, C-terminal FLAG (from UniProt P97814 1-415)”: in assay [3], the binding result is “binds”.

Consider “PST PIP with phenylalanine 221 mutated to alanine, C-terminal FLAG (from UniProt P97814 1-415)”, for which, in assay [3], the binding result is reported as “binds”.

Take “PST PIP with tryptophan 205 mutated to alanine, C-terminal FLAG (from UniProt P97814 1-415)”: in assay [3], the binding entry is listed as “binds”.

B1: full-length PSTPIP tagged with the FLAG epitope at the C-terminus (other)
chain: MMAQLQFRDAFWCRDFTAHTGYEVLLQRLLDGRKMCKDVEELLRQRAQAEERYGKELVQIARKAGGQTEMNSLRTSFDSLKQQTENVGSAHIQLALALREELRSLEEFRERQKEQRKKYEAIMDRVQKSKLSLYKKTMESKKAYDQKCRDADDAEQAFERVSANGHQKQVEKSQNKAKQCKESATEAERVYRQNIEQLERARTEWEQEHRTTCEAFQLQEFDRLTILRNALWVHCNQLSMQCVKDDELYEEVRLTLEGCDVEGDINGFIQSKSTGREPPAPVPYQNYYDREVTPLIGSPSIQPSCGVIKRFSGLLHGSPKTTPSAPAASTETLTPTPERNELVYASIEVQATQGNLNSSAQDYRALYDYTAQNSDELDISAGDILAVILEGEDGWWTVERNGQRGFVPGSYLEKLDYKDDDDK
notes: In vitro transcribed/translated in rabbit reticulocyte lysate, or expressed in COS cells
Regarding B1, in assay [4], the binding result was “binds”.

B2: PTP HSCF with R436 mutated to alanine, HA tagged (enzyme, UniProt Q61152 1-453, looked up, not shown: small tags and cut ends)
chain: MSRHTDLVRSFLEQLEARDYREGAILAREFSDIKARSVAWKSEGVCSTKAGSRLGNTNKNRYKDVVAYDETRVILSLLQEEGHGDYINANFIRGIDGSQAYIATQGPLPHTLLDFWRLVWEFGVKVILMACQETENGRRKCERYWAREQEPLKAGPFCITLTKETTLNADITLRTLQVTFQKEFRSVHQLQYMSWPDHGVPSSSDHILTMVEEARCLQGLGPGPLCVHCSAGCGRTGVLCAVDYVRQLLLTQTIPPNFSLFQVVLEMRKQRPAAVQTEEQYRFLYHTVAQLFSRTLQDTSPHYQNLKENCAPICKEAFSLRTSSALPATSRPPGGVLRSISVPAPPTLPMADTYAVVQKRGASAGTGPGPRAPTSTDTPIYSQVAPRAQRPVAHTEDAQGTTALRRVPADQNSSGPDAYEEVTDGAQTGGLGFNLAIGRPKGPRDPPAEWTRV
As for B2, in assay [5], the binding result was “binds”.

B3: PTP HSCF with G442 mutated to alanine, HA tagged (enzyme, UniProt Q61152 1-453, looked up, not shown: small tags and cut ends)
chain: B2 chain with A436R, G442A
For the molecule B3, the binding result in assay [5] is recorded as “binds”.

B4: PTP HSCF with R444 mutated to alanine, HA tagged (enzyme, UniProt Q61152 1-453, looked up, not shown: small tags and cut ends)
chain: B2 chain with A436R, R444A
Regarding B4, in assay [5], the binding entry is listed as “binds”.

B5: PTP HSCF with P447 mutated to alanine, HA tagged (enzyme, UniProt Q61152 1-453, looked up, not shown: small tags and cut ends)
chain: B2 chain with A436R, P447A
With B5, the binding entry in assay [5] is “binds”.

B6: PTP HSCF with P443 mutated to alanine, HA tagged (enzyme, UniProt Q61152 1-453, looked up, not shown: small tags and cut ends)
chain: B2 chain with A436R, P443A
Consider B6, for which the binding entry in assay [5] is reported as “binds”.

B7: PTP HSCF with W450 mutated to alanine, HA tagged (enzyme, UniProt Q61152 1-453, looked up, not shown: small tags and cut ends)
chain: B2 chain with A436R, W450A
As for B7, the binding result in assay [5] was “binds”.

B8: PTP HSCF with P440 mutated to alanine, HA tagged (enzyme, UniProt Q61152 1-453, looked up, not shown: small tags and cut ends)
chain: B2 chain with A436R, P440A
In the case of B8, the binding entry in assay [5] is listed as “binds”.
